Data as given in PubChem BioAssay AID743121 (NCATS, 2013)
In all, the deposit lists about 26,000 reagents; this is a part drawn at random. 167 of all reagents (0.63%) count as active. 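Calls are per gene from RSA p-values that are not deposited; an individual active-marked siRNA can sensitise only weakly.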

- Screen: 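Partners whose loss is lethal together with topoisomerase I blockade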 (primary screen)
- System: MDA-MB-231 cells, a human breast cancer line
- Knock-down reagent: single siRNA against human genes, 20 nM siRNA (0.8 pmol per well)
- Timing: 120 h (drug added 48 h after transfection, read 72 h later)
- Challenge: camptothecin 20 nM (about EC30) for 72 h; vehicle 0.1% DMSO in parallel plates
- Detection: 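CellTiter-Glo ATP signal, scaled to control siRNA as percent viability; sensitisation given as log2 of untreated divided by camptothecin-treated viability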
- Reading the numbers: log2 vehicle/camptothecin viability: higher = stronger sensitisation to camptothecin; viability with camptothecin and viability without drug: higher = more viable cells
- Rule for the call: 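Each gene scored by redundant siRNA activity (RSA) over its individual siRNA ratios; a gene is called active at p < 0.001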

| target | PubChem SID | log2 vehicle/camptothecin viability | viability with camptothecin (% of control) | viability without drug (% of control) | call |
| --- | --- | --- | --- | --- | --- |
| HOXD10 (homeobox D10) | SID164369868 | -0.0332 | 106 | 104 | inactive |
| HOXD10 (homeobox D10) | SID164369870 | 0.198 | 104 | 120 | inactive |
| HOXD10 (homeobox D10) | SID164369871 | 0.158 | 103 | 115 | inactive |
| HOXD10 (homeobox D10) | SID164369873 | -0.569 | 68 | 45.9 | inactive |
| CRKL (CRK like proto-oncogene, adaptor protein) | SID164359764 | -0.585 | 63 | 42 | inactive |
| CRKL (CRK like proto-oncogene, adaptor protein) | SID164359766 | -0.179 | 84.7 | 74.8 | inactive |
| CRKL (CRK like proto-oncogene, adaptor protein) | SID164359768 | -0.489 | 63.6 | 45.3 | inactive |
| MXRA5 (matrix remodeling associated 5) | SID164457501 | -0.219 | 88.2 | 75.8 | inactive |
| MXRA5 (matrix remodeling associated 5) | SID164457502 | -0.0112 | 79.9 | 79.3 | inactive |
| MXRA5 (matrix remodeling associated 5) | SID164457504 | -0.00318 | 77 | 76.8 | inactive |
| MXRA5 (matrix remodeling associated 5) | SID164457507 | -0.0421 | 46.7 | 45.3 | inactive |
| RDH13 (retinol dehydrogenase 13) | SID164559506 | -0.113 | 90.2 | 83.4 | inactive |
| RDH13 (retinol dehydrogenase 13) | SID164559509 | -0.339 | 75.8 | 60 | inactive |
| RDH13 (retinol dehydrogenase 13) | SID164559512 | 0.0233 | 25.8 | 26.2 | inactive |
| RDH13 (retinol dehydrogenase 13) | SID164559513 | -0.0981 | 61.3 | 57.3 | inactive |
| KCNN3 (potassium calcium-activated channel subfamily N member 3) | SID164372577 | -0.33 | 79.3 | 63.1 | inactive |
| KCNN3 (potassium calcium-activated channel subfamily N member 3) | SID164372579 | 0.00992 | 40 | 40.2 | inactive |
| KCNN3 (potassium calcium-activated channel subfamily N member 3) | SID164372580 | -0.0702 | 87.5 | 83.4 | inactive |
| TRPV6 | SID164484909 | 0.052 | 55.9 | 58 | inactive |
| TRPV6 | SID164484910 | 0.0972 | 98.3 | 105 | inactive |
| TRPV6 | SID164484911 | -0.612 | 54.1 | 35.4 | inactive |
| TRPV6 | SID164484912 | -0.0502 | 17.8 | 17.2 | inactive |
| BRF2 (BRF2 general transcription factor IIIB subunit) | SID164484185 | 0.154 | 82 | 91.3 | inactive |
| BRF2 (BRF2 general transcription factor IIIB subunit) | SID164484187 | -0.725 | 74.5 | 45.1 | inactive |
| BRF2 (BRF2 general transcription factor IIIB subunit) | SID164484189 | -0.0164 | 79.8 | 78.9 | inactive |
| BRF2 (BRF2 general transcription factor IIIB subunit) | SID164484193 | -0.143 | 110 | 100 | inactive |
| PPM1L (protein phosphatase, Mg2+/Mn2+ dependent 1L) | SID164576519 | 0.404 | 66 | 87.3 | inactive |
| PPM1L (protein phosphatase, Mg2+/Mn2+ dependent 1L) | SID164576520 | -0.456 | 104 | 75.5 | inactive |
| PPM1L (protein phosphatase, Mg2+/Mn2+ dependent 1L) | SID164576522 | -0.211 | 93.7 | 81 | inactive |
| PPM1L (protein phosphatase, Mg2+/Mn2+ dependent 1L) | SID164576524 | -0.00994 | 78.7 | 78.2 | inactive |
| CTSF (cathepsin F) | SID164399434 | -0.159 | 117 | 105 | inactive |
| CTSF (cathepsin F) | SID164399435 | -0.223 | 58.6 | 50.2 | inactive |
| CTSF (cathepsin F) | SID164399436 | -0.33 | 66.7 | 53.1 | inactive |
| CTSF (cathepsin F) | SID164399439 | 0.123 | 58.5 | 63.7 | inactive |
| ADRA2B (adrenoceptor alpha 2B) | SID164352572 | -0.384 | 70 | 53.7 | inactive |
| ADRA2B (adrenoceptor alpha 2B) | SID164352574 | -0.2 | 96.6 | 84.1 | inactive |
| ADRA2B (adrenoceptor alpha 2B) | SID164352576 | 0.0514 | 89.4 | 92.6 | inactive |
| ADRA2B (adrenoceptor alpha 2B) | SID164352578 | 0.0679 | 84.4 | 88.5 | inactive |
| HEATR5A (HEAT repeat containing 5A) | SID164457863 | -0.313 | 86.6 | 69.7 | inactive |
| HEATR5A (HEAT repeat containing 5A) | SID164457864 | -0.0379 | 68.5 | 66.7 | inactive |
| HEATR5A (HEAT repeat containing 5A) | SID164457866 | -0.71 | 91.1 | 55.7 | inactive |
| HEATR5A (HEAT repeat containing 5A) | SID164457869 | -0.109 | 105 | 97.5 | inactive |
| RBX1 (ring-box 1) | SID164407821 | -0.151 | 53.9 | 48.5 | inactive |
| RBX1 (ring-box 1) | SID164407822 | -0.416 | 93 | 69.7 | inactive |
| RBX1 (ring-box 1) | SID164407824 | -0.19 | 76.2 | 66.8 | inactive |
| RBX1 (ring-box 1) | SID164407827 | -0.561 | 75.5 | 51.2 | inactive |
| HMGCS1 (3-hydroxy-3-methylglutaryl-CoA synthase 1) | SID164369297 | 0.0437 | 50.4 | 51.9 | inactive |
| HMGCS1 (3-hydroxy-3-methylglutaryl-CoA synthase 1) | SID164369298 | 0.4 | 12 | 15.9 | inactive |
| HMGCS1 (3-hydroxy-3-methylglutaryl-CoA synthase 1) | SID164369300 | -0.752 | 31 | 18.4 | inactive |
| HMGCS1 (3-hydroxy-3-methylglutaryl-CoA synthase 1) | SID164369302 | 0.14 | 23.8 | 26.2 | inactive |
| INS (insulin) | SID164371645 | 1.19 | 7.6 | 17.3 | inactive |
| INS (insulin) | SID164371650 | 0.256 | 2.99 | 3.57 | inactive |
| INS (insulin) | SID164371653 | -0.328 | 41.3 | 32.9 | inactive |
| INS (insulin) | SID164371654 | -0.439 | 62 | 45.7 | inactive |
| ETS1 (ETS proto-oncogene 1, transcription factor) | SID164363831 | 0.222 | 55.5 | 64.8 | inactive |
| ETS1 (ETS proto-oncogene 1, transcription factor) | SID164363833 | -0.531 | 119 | 82.4 | inactive |
| ETS1 (ETS proto-oncogene 1, transcription factor) | SID164363834 | 0.285 | 53.5 | 65.1 | inactive |
| ETS1 (ETS proto-oncogene 1, transcription factor) | SID164363835 | -0.222 | 101 | 86.2 | inactive |
| RERG (RAS like estrogen regulated growth inhibitor) | SID164547852 | 0.0369 | 87.9 | 90.2 | inactive |
| RERG (RAS like estrogen regulated growth inhibitor) | SID164547853 | 0.781 | 35.8 | 61.4 | inactive |
| RERG (RAS like estrogen regulated growth inhibitor) | SID164547855 | -0.18 | 89 | 78.5 | inactive |
| RERG (RAS like estrogen regulated growth inhibitor) | SID164547856 | -0.469 | 68.9 | 49.7 | inactive |
| FLT4 (fms related receptor tyrosine kinase 4) | SID164365177 | -0.423 | 68.8 | 51.3 | inactive |
| FLT4 (fms related receptor tyrosine kinase 4) | SID164365178 | -0.228 | 56.3 | 48 | inactive |
| FLT4 (fms related receptor tyrosine kinase 4) | SID164365181 | -0.0665 | 101 | 96 | inactive |
| FLT4 (fms related receptor tyrosine kinase 4) | SID164365182 | -0.561 | 94 | 63.7 | inactive |
| IL7 (interleukin 7) | SID164371303 | -0.18 | 84.5 | 74.6 | inactive |
| IL7 (interleukin 7) | SID164371304 | -0.239 | 110 | 93.2 | inactive |
| IL7 (interleukin 7) | SID164371305 | 0.0108 | 102 | 103 | inactive |
| IL7 (interleukin 7) | SID164371306 | -0.249 | 94.4 | 79.4 | inactive |
